Reference: patent US20240197646A1, “DRUG DELIVERY SYSTEM AND METHODS OF USING THE SAME” (Axogen Corporation, priority 2022, published 2024)
At least one compound was matched to its structure with a doubt left.

Test system: dissociated sensory neurons (dorsal root ganglion cells)
Assay: In vitro neurite outgrowth of dissociated sensory neurons cultured with FK506-containing films
Type: cell-based
Conditions: 48 hours culture at 37 degrees Celsius; versus negative control (no film, no FK506); FIGS. 7 and 8A-8D

C=CC[C@@H]1/C=C(\C)C[C@H](C)C[C@H](OC)[C@H]2O[C@@](O)(C(=O)C(=O)N3CCCC[C@H]3C(=O)O[C@H](/C(C)=C/[C@@H]3CC[C@@H](O)[C@H](OC)C3)[C@H](C)[C@@H](O)CC1=O)[C@H](C)C[C@@H]2OC [FK506]
neurite extension: significantly increased
